Laboratory results reported in patent publication US10011814B2, “Salt formulations for the fermentation of marine microorganisms” (Triphase Research and Development I Corp., priority 2006, dated 2018).

Tested on: Salinispora tropica NPS021184
Assay: Production of Salinosporamide A and analogs in shake flask or tube culture; titers by HPLC of EtOAc extract
Settings: for Max Titers: Ex.1 Table 2; for Max Avg Titer / relative to Sal A (%): Ex.2 Table 3
Protocol: Seed cultures were prepared by inoculating frozen stock of Salinispora tropica NPS021184 into seed medium.
The first seed cultures (either 10 mL medium in a 50-mL tube or 100 mL medium in a 500-mL Erlenmeyer flask) were incubated for 3 to 4 days before inoculating into the second seed media with the same composition as the first seed cultures. The second seed cultures (100 mL medium in a 500-mL Erlenmeyer flask) were incubated for two days before inoculating into the production medium (100 mL medium in a 500-mL Erlenmeyer flask).
The chemically defined salt formulation included: […]
3.5 mL of the fermentation culture was mixed with equal volume of EtOAc in an extraction tube to extract the various metabolites from the production culture. The mixture was shaken on a shaker for one hr. An aliquot of the extract (1 mL) was removed and dried under a stream of nitrogen. The dried extract was stored at −20° C. freezer before HPLC analysis. The dried extract was resuspended in 320 μL DMSO and injected into HPLC using the 00TF14 method for analysis.
The production of Salinosporamide A, NPI-0047 and NPI-2065 was monitored by Agilent HP1100 HPLC using an ACE C-18 reversed-phase column (4.6×150 mm), and solvent system consisting of water (0.01% TFA) as solvent A and acetonitrile (0.01% TFA) as solvent B. The elution was started at 100% solvent A for 1 min, 100% solvent A to 35% solvent A gradient in 7 min, held at 35% solvent A for 11 min, 35% solvent A to 100% solvent B in 8 min and held at 100% solvent B for 9 min at a flow rate of 1.5 mL/min with the detector wavelength set at 210 nm and column temperature 35° C.
The first seed cultures (either 10 mL medium in a 50-mL tube or 100 ml medium in a 500-ml Erlenmeyer flask) were incubated for 3 to 4 days before inoculating into the second seed media with the same composition as the first seed cultures. The second seed cultures (100 mL medium in a 500-mL Erlenmeyer flask) were incubated for two days before inoculating into the production medium (100 mL medium in a 500-mL Erlenmeyer flask).
The first seed cultures (either 10 mL medium in a 50-ml tube or 100 mL medium in a 500-mL Erlenmeyer flask) were incubated for 3 to 4 days before inoculating into the second seed media with the same composition as the first seed cultures. The second seed cultures (100 mL medium in a 500-mL Erlenmeyer flask) were incubated for two days before inoculating into production medium (100 mL medium in a 500-mL Erlenmeyer flask).
3.5 mL of the fermentation culture was mixed with equal volume of EtOAc in an extraction tube to extract the various metabolites from the production culture. The mixture was shaken for 1 hr. An aliquot of the extract (1 mL) was removed and dried under a stream of nitrogen. The dried extract was stored at −20° C. freezer before HPLC analysis. The dried extract was resuspended in […] DMSO and injected into HPLC using the TFS7 method for analysis.
The production of Salinosporamide A, NPI-0047 and NPI-2065 was monitored by Agilent HP1100 HPLC using an ACE C-18 reversed-phase column (4.6×150 mm), and isocratic solvent system consisting of 67% water (0.01% TFA) and 33% acetonitrile (0.01% TFA). The flow rate was 1.5 mL/min for 15 min with the detector wavelength set at 210 nm and column temperature 35° C.
3.5 mL of the fermentation culture was mixed with equal volume of EtOAc in an extraction tube to extract the various metabolites from the production culture. The mixture was shaken on the shaker for 1 hr. An aliquot of the extract (1 mL) was removed and dried under a stream of nitrogen. The dried extract was stored at −20° C. freezer before HPLC analysis. The dried extract was resuspended in 320 μL DMSO and injected into HPLC using the TFS7 method for analysis. […]

## CC[C@H]1C(=O)N[C@@]2([C@@H](O)[C@@H]3C=CCCC3)C(=O)O[C@@]12C [NPI-0047, Salinosporamide B]
BAS.PD + 0.1% Valeric acid
  Titers (maximum concentrations): 0.45 mg/L
Ex.1 Table 1, shake flask, 104 μg/L CoCl2·6H2O in production medium
  Maximum Titer: 3.6 mg/L
Ex.1 Table 1, shake flask, 1.04 mg/L CoCl2·6H2O in production medium
  Maximum Titer: 3.5 mg/L
Ex.1 Table 1, shake flask, 10.4 mg/L CoCl2·6H2O in production medium
  Maximum Titer: 3.1 mg/L
Ex.1 Table 1, shake flask, no CoCl2·6H2O addition to production medium
  Maximum Titer: 10.6 mg/L
2.6 μg/L CoCl2·6H2O in production medium
  Max Titers: 8.3 mg/L
5.2 μg/L CoCl2·6H2O in production medium
  Max Titers: 6.0 mg/L
6.5 μg/L CoCl2·6H2O in production medium
  Max Titers: 6.3 mg/L
13 μg/L CoCl2·6H2O in production medium
  Max Titers: 4.9 mg/L
26 μg/L CoCl2·6H2O in production medium
  Max Titers: 3.7 mg/L
52 μg/L CoCl2·6H2O in production medium
  Max Titers: 3.1 mg/L
104 μg/L CoCl2·6H2O in production medium
  Max Titers: 3.5 mg/L
208 μg/L CoCl2·6H2O in production medium
  Max Titers: 3.1 mg/L
416 μg/L CoCl2·6H2O in production medium
  Max Titers: 2.7 mg/L
Shake flask, control, no CoCl2·6H2O in production medium
  Max Titers: 10.2 mg/L
CoCl2·6H2O in seed medium 0 μg/L, 52 μg/L in production medium
  Max Avg Titer: 3.3 mg/L
CoCl2·6H2O in seed medium 2.6 μg/L, 52 μg/L in production medium
  Max Avg Titer: 3.5 mg/L
CoCl2·6H2O in seed medium 5.2 μg/L, 52 μg/L in production medium
  Max Avg Titer: 3.4 mg/L
CoCl2·6H2O in seed medium 13 μg/L, 52 μg/L in production medium
  Max Avg Titer: 2.8 mg/L
CoCl2·6H2O in seed medium 26 μg/L, 52 μg/L in production medium
  Max Avg Titer: 3.2 mg/L
CoCl2·6H2O in seed medium 52 μg/L, 52 μg/L in production medium
  Max Avg Titer: 2.7 mg/L
CoCl2·6H2O in seed medium 104 μg/L, 52 μg/L in production medium
  Max Avg Titer: 3.0 mg/L
CoCl2·6H2O in seed medium 208 μg/L, 52 μg/L in production medium
  Max Avg Titer: 2.9 mg/L
CoCl2·6H2O in seed medium 416 μg/L, 52 μg/L in production medium
  Max Avg Titer: 3.0 mg/L
Seed CoCl2·6H2O 0 μg/L
  relative to Sal A (%): 1.1%
Seed CoCl2·6H2O 2.6 μg/L
  relative to Sal A (%): 1.2%
Seed CoCl2·6H2O 5.2 μg/L
  relative to Sal A (%): 1.1%
Seed CoCl2·6H2O 13 μg/L
  relative to Sal A (%): 0.9%
Seed CoCl2·6H2O 26 μg/L
  relative to Sal A (%): 0.9%
Seed CoCl2·6H2O 52 μg/L
  relative to Sal A (%): 0.8%
Seed CoCl2·6H2O 104 μg/L
  relative to Sal A (%): 0.9%
Seed CoCl2·6H2O 208 μg/L
  relative to Sal A (%): 0.8%
Seed CoCl2·6H2O 416 μg/L
  relative to Sal A (%): 0.9%
Ex.4 Table 9, Chemically Defined Salt Formulation + Na2SO4 + 52 μg/L CoCl2·6H2O (Medium Lo.Maz, low chloride)
  Titer: 7.3 mg/L
Ex.4 Table 9, Chemically Defined Salt Formulation + NaCl + 52 μg/L CoCl2·6H2O, average of two experiments
  Titer: 3.2* mg/L
Ex.4 Table 9, production medium with INSTANT OCEAN
  Titer: 12.7 mg/L
Ex.4 Table 9, production medium: Chemically Defined Salt Formulation + NaCl
  Titer: 10.6 mg/L
Ex.5 Table 12, seed Lo.BNA, production SHY.KcMC, 16 mM sodium by ICP-MS, culture age 3 days
  Titer: 0.7 mg/L
Ex.5 Table 12, seed Lo.BNA, production SHY.KcMC, 16 mM sodium by ICP-MS, culture age 4 days
  Titer: 1.1 mg/L
Ex.5 Table 12, seed Lo.BNA, production SHY.KcMC, 16 mM sodium by ICP-MS, culture age 5 days
  Titer: 0.3 mg/L
Ex.5 Table 12, seed Lo.BNA, production SHY.KcMC, 16 mM sodium by ICP-MS, culture age 6 days
  Titer: 0.5 mg/L
Ex.6 Table 13, washed cells, seed A1.Kc4C, production SHY.KcMC, 11 mM sodium by ICP-MS, culture age 3 days
  Titers: 0 mg/L
Ex.6 Table 13, washed cells, seed A1.Kc4C, production SHY.KcMC, 11 mM sodium by ICP-MS, culture age 4 days
  Titers: 0 mg/L
Ex.6 Table 13, washed cells, seed A1.Kc4C, production SHY.KcMC, 11 mM sodium by ICP-MS, culture age 5 days
  Titers: 0.5 mg/L
Ex.6 Table 13, washed cells, seed A1.Kc4C, production SHY.KcMC, 11 mM sodium by ICP-MS, culture age 6 days
  Titers: 0.6 mg/L
Ex.8 Table 16, seed SHY.KCD, production SHY.KcMC, 11 mM sodium by ICP-MS, culture age 3 days
  Titers: 0.2 mg/L
Ex.8 Table 16, seed SHY.KCD, production SHY.KcMC, 11 mM sodium by ICP-MS, culture age 4 days
  Titers: 0.5 mg/L
Ex.8 Table 16, seed SHY.KCD, production SHY.KcMC, 11 mM sodium by ICP-MS, culture age 5 days
  Titers: 0.7 mg/L
Ex.8 Table 16, seed SHY.KCD, production SHY.KcMC, 11 mM sodium by ICP-MS, culture age 6 days
  Titers: 0.9 mg/L
INSTANT OCEAN-based media, day 4, condition 1 (Control): seed no cobalt addition, production no cobalt addition
  Titers: 15 mg/L
INSTANT OCEAN-based media, day 4, condition 2: seed no cobalt addition, production +13 μg/L CoCl2•6H2O
  Titers: 7.4 mg/L
INSTANT OCEAN-based media, day 4, condition 3: seed no cobalt addition, production +52 μg/L CoCl2•6H2O
  Titers: 5.6 mg/L
INSTANT OCEAN-based media, day 4, condition 4: seed no cobalt addition, production +208 μg/L CoCl2•6H2O
  Titers: 5.5 mg/L
INSTANT OCEAN-based media, day 4, condition 5: seed +52 μg/L CoCl2•6H2O, production no cobalt addition
  Titers: 11.8 mg/L
INSTANT OCEAN-based media, day 4, condition 6: seed +52 μg/L, production +13 μg/L CoCl2•6H2O
  Titers: 8.9 mg/L
INSTANT OCEAN-based media, day 4, condition 7: seed +52 μg/L, production +52 μg/L CoCl2•6H2O
  Titers: 7.8 mg/L
INSTANT OCEAN-based media, day 4, condition 8: seed +5 μg/L, production +208 μg/L CoCl2•6H2O
  Titers: 7.0 mg/L
INSTANT OCEAN-based media, day 4, condition 9: seed +208 μg/L CoCl2•6H2O, production no cobalt addition
  Titers: 7.9 mg/L
INSTANT OCEAN-based media, day 4, condition 10: seed +208 μg/L, production +13 μg/L CoCl2•6H2O
  Titers: 5.7 mg/L
INSTANT OCEAN-based media, day 4, condition 11: seed +208 μg/L, production +52 μg/L CoCl2•6H2O
  Titers: 6.4 mg/L
INSTANT OCEAN-based media, day 4, condition 12: seed +208 μg/L, production +208 μg/L CoCl2•6H2O
  Titers: 5.1 mg/L
Instant Ocean based media, 0x Vitamin B12: seed 0, production 0
  Maximum Titer: 11.1 mg/L
Instant Ocean based media, 1x Vitamin B12: seed and production 0.296 mg/L (0.22 μM)
  Maximum Titer: 2.8 mg/L
Instant Ocean based media, 1x vitamin B12P: seed 0, production 0.296 mg/L (0.22 μM) Vitamin B12
  Maximum Titer: 2.9 mg/L
Instant Ocean based media, 4x Vitamin B12: seed and production 1.185 mg/L (0.88 μM)
  Maximum Titer: 2.8 mg/L
Instant Ocean based media, 10x Vitamin B12: seed and production 2.96 mg/L (2.2 μM)
  Maximum Titer: 2.5 mg/L
LoCl.PD + 0.1% Valeric acid
  Titers (maximum concentrations): 8.3 mg/L
NPS21184, CoCl2•6H2O 0 in seed medium, 0 in production medium
  Titer: 13 mg/L
NPS21184, CoCl2•6H2O 208 μg/L in seed medium, 52 μg/L in production medium
  Titer: 1.2 mg/L
NPS21184, production medium with salt formulation, NaCl 0 g/L
  Titer: 0 mg/L
NPS21184, production medium with salt formulation, NaCl 5 g/L
  Titer: 0.5 mg/L
NPS21184, production medium with salt formulation, NaCl 10 g/L
  Titer: 14 mg/L
NPS21184, production medium with salt formulation, NaCl 15 g/L
  Titer: 6.4 mg/L
NPS21184, production medium with salt formulation, NaCl 20 g/L
  Titer: 1.2 mg/L
NPS21184, production medium with salt formulation, NaCl 24 g/L
  Titer: 2.1 mg/L
NPS21184, production medium with salt formulation, NaCl 30 g/L
  Titer: 1.4 mg/L
Defined salt formulation based media, 1× CoCl2•6H2O: seed and production 52 μ/L (0.22 μM) CoCl2•6H2O
  Maximum Titer: 1.4 mg/L
Defined salt formulation based media, 1× vitamin B12: seed and production 0.296 mg/L (0.22 μM) Vitamin B12
  Maximum Titer: 1.1 mg/L
Defined salt formulation based media, Control: no vitamin B12 or cobalt supplement
  Maximum Titer: 4.7 mg/L
Low chloride production medium LoCl.PD, no valeric acid
  Titers (maximum concentrations): 25 mg/L
Saline production medium BAS.PD, no valeric acid
  Titers (maximum concentrations): 6.6 mg/L

Marks after values point to notes of the source that are not given here.
